No constants are given. Whether binding was seen depends on the method and setting.
What was measured:
[1] = biological target: wild-type mouse αE-catenin M1-M3 fragment (residues 276–634), GST-tag cleaved, as used for AFM structural imaging (mouse) (UniProt P26231); experiment: AFM structural imaging; 1 nM α-catenin fragment absorbed on mica in working buffer; distribution of the area of the molecules (Supplementary Fig. 3); both purified
[2] = biological target: mouse αE-catenin M2-M3 domain (residues 385–634) with a GST-tag at the N-terminus and a His6-tag at the C-terminus (mouse) (UniProt P26231); experiment: AFM extension combined with TIRF observation; α-catenin fragment immobilised on Ni-NTA coverslip by its C-terminal His6, pulled at the GST-tag by a glutathione-modified AFM tip and held under approximately 15 pN; force curves with successful α-catenin extension; 10 nM Alexa 488-labelled vinculin in 20 mM Tris-HCl pH 8.0, 1 mM DTT, 2 mM Trolox; both purified

Chains of the proteins cited; added tags and fusions are not shown. A line that says so, or that is headed by a name, gives the form on record, which may keep a tag or linker. Residues count along the entry.
wild-type mouse αE-catenin M1-M3 fragment (residues 276–634), GST-tag cleaved, as used for AFM structural imaging (P26231, residues 276-634): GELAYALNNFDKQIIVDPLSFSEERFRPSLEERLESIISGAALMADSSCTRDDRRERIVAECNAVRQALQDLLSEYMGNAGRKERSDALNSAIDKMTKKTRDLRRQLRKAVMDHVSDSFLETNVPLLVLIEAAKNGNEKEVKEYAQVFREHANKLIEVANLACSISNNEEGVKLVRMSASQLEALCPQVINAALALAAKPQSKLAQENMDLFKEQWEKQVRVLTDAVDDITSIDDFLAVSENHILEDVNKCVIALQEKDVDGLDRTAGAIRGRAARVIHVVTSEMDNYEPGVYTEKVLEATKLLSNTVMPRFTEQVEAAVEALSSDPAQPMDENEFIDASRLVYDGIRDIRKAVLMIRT
mouse αE-catenin M2-M3 domain (residues 385–634) with a GST-tag at the N-terminus and a His6-tag at the C-terminus (P26231, residues 385-634): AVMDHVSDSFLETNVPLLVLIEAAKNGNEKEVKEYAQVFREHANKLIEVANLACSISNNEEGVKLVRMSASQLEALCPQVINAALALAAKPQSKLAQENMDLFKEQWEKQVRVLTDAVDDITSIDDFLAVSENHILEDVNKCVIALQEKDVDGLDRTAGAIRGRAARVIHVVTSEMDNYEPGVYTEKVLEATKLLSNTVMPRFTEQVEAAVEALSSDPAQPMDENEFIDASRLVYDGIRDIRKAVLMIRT

Row | Molecule | binding [1] | binding [2]
1 | wild-type mouse αE-catenin M1-M3 fragment (residues 276–634), GST-tag cleaved, as used for AFM structural imaging (from UniProt P26231 276-634) (domain or fragment) | no binding (tested: 1 nM) | –
2 | mouse full-length vinculin (residues 1–1066), labelled with Alexa Fluor 488 (protein, UniProt Q64727 1-1066, Alexa Fluor 488 dye on primary amines (conjugated at a 1:1 ratio)) MPVFHTRTIESILEPVAQQISHLVIMHEEGEVDGKAIPDLTAPVAAVQAAVSNLVRVGKETVQTTEDQILKRDMPPAFIKVENACTKLVQAAQMLQSDPYSVPARDYLIDGSRGILSGTSDLLLTFDEAEVRKIIRVCKGILEYLTVAEVVETMEDLVTYTKNLGPGMTKMAKMIDERQQELTHQEHRVMLVNSMNTVKELLPVLISAMKIFVTTKNSKNQGIEEALKNRNFTVEKMSAEINEIIRVLQLTSWDEDAWASKDTEAMKRALASIDSKLNQAKGWLRDPNASPGDAGEQAIRQILDEAGKVGELCAGKERREILGTCKMLGQMTDQVADLRARGQGASPVAMQKAQQVSQGLDVLTAKVENAARKLEAMTNSKQSIAKKIDAAQNWLADPNGGPEGEEQIRGALAEARKIAELCDDPKERDDILRSLGEIAALTSKLGDLRRQGKGDSPEARALAKQVATALQNLQTKTNRAVANSRPAKAAVHLEGKIEQAQRWIDNPTVDDRGVGQAAIRGLVAEGHRLANVMMGPYRQDLLAKCDRVDQLTAQLADLAARGEGESPQARALASQLQDSLKDLKAQMQEAMTQEVSDVFSDTTTPIKLLAVAATAPPDAPNREEVFDERAANFENHSGRLGATAEKAAAVGTANKSTVEGIQASVKTARELTPQVISAARILLRNPGNQAAYEHFETMKNQWIDNVEKMTGLVDEAIDTKSLLDASEEAIKKDLDKCKVAMANIQPQMLVAGATSIARRANRILLVAKREVENSEDPKFREAVKAASDELSKTISPMVMDAKAVAGNISDPGLQKSFLDSGYRILGAVAKVREAFQPQEPDFPPPPPDLEQLRLTDELAPPKPPLPEGEVPPPRPPPPEEKDEEFPEQKAGEVINQPMMMAARQLHDEARKWSSKGNDIIAAAKRMALLMAEMSRLVRGGSGTKRALIQCAKDIAKASDEVTRLAKEVAKQCTDKRIRTNLLQVCERIPTISTQLKILSTVKATMLGRTNISDEESEQATEMLVHNAQNLMQSVKETVREAEAASIKIRTDAGFTLRWVRKTPWYQ | – | no binding (tested: 10 nM)
